# Measured values from publication PMC5386534.
# Amino acid sequences for entries named in this document (tags omitted).
# UniProt P10415: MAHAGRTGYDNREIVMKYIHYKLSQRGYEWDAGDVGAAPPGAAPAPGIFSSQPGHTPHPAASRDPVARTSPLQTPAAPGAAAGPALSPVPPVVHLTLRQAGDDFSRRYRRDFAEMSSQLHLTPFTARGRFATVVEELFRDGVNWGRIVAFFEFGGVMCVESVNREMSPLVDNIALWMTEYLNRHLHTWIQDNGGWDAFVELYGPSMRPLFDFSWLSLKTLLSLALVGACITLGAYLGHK
# UniProt O00327: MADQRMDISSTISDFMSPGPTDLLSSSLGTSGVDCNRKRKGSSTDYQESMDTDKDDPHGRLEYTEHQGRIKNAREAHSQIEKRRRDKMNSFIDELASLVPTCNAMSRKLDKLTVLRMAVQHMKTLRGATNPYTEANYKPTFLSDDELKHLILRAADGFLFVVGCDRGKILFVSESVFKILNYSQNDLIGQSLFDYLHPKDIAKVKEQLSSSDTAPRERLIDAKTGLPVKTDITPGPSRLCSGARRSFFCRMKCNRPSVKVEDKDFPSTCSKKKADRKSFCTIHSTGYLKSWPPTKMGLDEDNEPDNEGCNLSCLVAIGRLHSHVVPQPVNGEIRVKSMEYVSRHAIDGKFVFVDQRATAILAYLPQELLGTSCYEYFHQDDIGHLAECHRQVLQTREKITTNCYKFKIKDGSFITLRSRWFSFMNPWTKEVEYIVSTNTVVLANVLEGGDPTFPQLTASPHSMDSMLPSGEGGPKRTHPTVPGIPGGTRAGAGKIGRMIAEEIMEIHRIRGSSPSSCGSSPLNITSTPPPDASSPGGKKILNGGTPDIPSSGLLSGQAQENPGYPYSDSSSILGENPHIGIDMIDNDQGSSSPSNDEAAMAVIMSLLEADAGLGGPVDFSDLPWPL
# These are yes or no findings as the source states them, for the method shown. Binding seen in cells or lysates may run through a third protein. Some binding calls cover weakened binding; strength is not graded here.
# T1: Neuronal PAS domain protein 2 (NPAS2) (human (endogenous in HLE)) (UniProt Q99743)
# T1 sequence: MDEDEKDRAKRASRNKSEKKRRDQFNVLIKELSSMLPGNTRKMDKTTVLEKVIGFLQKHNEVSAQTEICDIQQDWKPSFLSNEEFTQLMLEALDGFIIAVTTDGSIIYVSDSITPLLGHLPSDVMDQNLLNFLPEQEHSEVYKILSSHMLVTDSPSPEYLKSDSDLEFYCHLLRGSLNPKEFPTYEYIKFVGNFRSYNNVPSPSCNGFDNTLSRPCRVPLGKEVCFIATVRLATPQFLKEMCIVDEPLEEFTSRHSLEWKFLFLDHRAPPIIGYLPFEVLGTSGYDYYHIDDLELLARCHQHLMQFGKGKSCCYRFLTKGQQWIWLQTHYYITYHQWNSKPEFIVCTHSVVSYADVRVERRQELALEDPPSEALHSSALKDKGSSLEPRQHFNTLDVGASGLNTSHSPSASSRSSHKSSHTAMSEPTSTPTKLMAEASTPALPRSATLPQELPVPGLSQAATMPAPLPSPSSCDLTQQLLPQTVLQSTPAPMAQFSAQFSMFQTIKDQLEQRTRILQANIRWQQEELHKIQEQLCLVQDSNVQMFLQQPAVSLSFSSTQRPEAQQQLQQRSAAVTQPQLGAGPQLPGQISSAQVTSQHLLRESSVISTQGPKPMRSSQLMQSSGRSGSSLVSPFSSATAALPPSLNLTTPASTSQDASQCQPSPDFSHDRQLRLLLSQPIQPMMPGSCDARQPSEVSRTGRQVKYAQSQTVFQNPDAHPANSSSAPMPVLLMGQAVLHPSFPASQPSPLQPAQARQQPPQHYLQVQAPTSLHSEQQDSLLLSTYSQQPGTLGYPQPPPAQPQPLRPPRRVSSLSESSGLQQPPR
# T2: CDC25A (human (endogenous in HLE and HLF)) (UniProt P30304)
# T2 sequence: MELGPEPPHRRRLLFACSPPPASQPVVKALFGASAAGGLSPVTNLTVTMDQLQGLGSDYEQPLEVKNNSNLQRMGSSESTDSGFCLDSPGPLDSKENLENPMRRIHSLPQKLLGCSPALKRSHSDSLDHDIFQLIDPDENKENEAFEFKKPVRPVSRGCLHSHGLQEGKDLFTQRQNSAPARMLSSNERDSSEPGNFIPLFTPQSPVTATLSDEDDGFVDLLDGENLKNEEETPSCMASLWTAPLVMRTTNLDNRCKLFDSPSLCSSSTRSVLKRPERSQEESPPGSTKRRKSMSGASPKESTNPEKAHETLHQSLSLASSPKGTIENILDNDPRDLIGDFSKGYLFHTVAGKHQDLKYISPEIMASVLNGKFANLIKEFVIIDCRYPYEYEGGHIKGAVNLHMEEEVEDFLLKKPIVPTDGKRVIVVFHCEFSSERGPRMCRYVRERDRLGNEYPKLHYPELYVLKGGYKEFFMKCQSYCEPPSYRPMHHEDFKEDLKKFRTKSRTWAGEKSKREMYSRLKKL
# Tests used:
# [1] = biological target: T1, Neuronal PAS domain protein 2 (NPAS2) (human (endogenous in HLE)); assay: co-IP; IP with anti-NPAS2 or anti-BMAL1 antibody from extracts of HLE cells (HCC cells); immunoblot for BMAL1 or NPAS2
# [2] = biological target: T2, CDC25A (human (endogenous in HLE and HLF)); assay: co-IP; IP with anti-CDC25A or anti-Bcl-2 antibody (control IgG) from extracts of HLE and HLF cells; immunoblot for Bcl-2 or CDC25A
# [3] = biological target: Bcl-2 (human (endogenous in HLE and HLF)) (UniProt P10415); assay: as above
molecule,measurement,setting,value
BMAL1 (from UniProt O00327 1-626),binding,[1],binds
Bcl-2 (from UniProt P10415 1-239),binding,[2],binds
"CDC25A (enzyme, UniProt P30304 1-524) MELGPEPPHRRRLLFACSPPPASQPVVKALFGASAAGGLSPVTNLTVTMDQLQGLGSDYEQPLEVKNNSNLQRMGSSESTDSGFCLDSPGPLDSKENLENPMRRIHSLPQKLLGCSPALKRSHSDSLDHDIFQLIDPDENKENEAFEFKKPVRPVSRGCLHSHGLQEGKDLFTQRQNSAPARMLSSNERDSSEPGNFIPLFTPQSPVTATLSDEDDGFVDLLDGENLKNEEETPSCMASLWTAPLVMRTTNLDNRCKLFDSPSLCSSSTRSVLKRPERSQEESPPGSTKRRKSMSGASPKESTNPEKAHETLHQSLSLASSPKGTIENILDNDPRDLIGDFSKGYLFHTVAGKHQDLKYISPEIMASVLNGKFANLIKEFVIIDCRYPYEYEGGHIKGAVNLHMEEEVEDFLLKKPIVPTDGKRVIVVFHCEFSSERGPRMCRYVRERDRLGNEYPKLHYPELYVLKGGYKEFFMKCQSYCEPPSYRPMHHEDFKEDLKKFRTKSRTWAGEKSKREMYSRLKKL",binding,[3],binds
